# Laboratory results published in publication doi:10.1101/2025.10.25.684511.
# Chains of the proteins cited; added tags and fusions are not shown.
# UniProt Q99LI8: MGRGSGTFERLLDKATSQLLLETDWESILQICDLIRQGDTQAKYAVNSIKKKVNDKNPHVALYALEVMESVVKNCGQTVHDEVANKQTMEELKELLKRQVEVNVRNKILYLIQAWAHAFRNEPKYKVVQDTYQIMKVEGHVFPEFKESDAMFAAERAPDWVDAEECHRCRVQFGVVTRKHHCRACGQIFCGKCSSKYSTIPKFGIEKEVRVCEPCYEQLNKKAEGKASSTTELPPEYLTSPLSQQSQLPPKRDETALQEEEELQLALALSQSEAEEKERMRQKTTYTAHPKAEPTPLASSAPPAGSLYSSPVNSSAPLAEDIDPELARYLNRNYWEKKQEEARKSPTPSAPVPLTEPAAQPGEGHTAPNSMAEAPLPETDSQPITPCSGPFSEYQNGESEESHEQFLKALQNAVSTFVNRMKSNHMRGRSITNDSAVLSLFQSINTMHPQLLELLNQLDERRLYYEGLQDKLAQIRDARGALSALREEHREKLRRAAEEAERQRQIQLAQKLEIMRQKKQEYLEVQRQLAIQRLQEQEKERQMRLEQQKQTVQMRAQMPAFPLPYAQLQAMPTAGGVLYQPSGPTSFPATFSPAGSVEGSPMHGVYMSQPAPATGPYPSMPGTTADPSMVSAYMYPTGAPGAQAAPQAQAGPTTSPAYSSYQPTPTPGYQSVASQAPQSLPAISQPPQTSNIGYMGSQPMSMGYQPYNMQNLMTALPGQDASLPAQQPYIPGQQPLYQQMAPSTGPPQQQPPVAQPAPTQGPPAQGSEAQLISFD
# UniProt P70297: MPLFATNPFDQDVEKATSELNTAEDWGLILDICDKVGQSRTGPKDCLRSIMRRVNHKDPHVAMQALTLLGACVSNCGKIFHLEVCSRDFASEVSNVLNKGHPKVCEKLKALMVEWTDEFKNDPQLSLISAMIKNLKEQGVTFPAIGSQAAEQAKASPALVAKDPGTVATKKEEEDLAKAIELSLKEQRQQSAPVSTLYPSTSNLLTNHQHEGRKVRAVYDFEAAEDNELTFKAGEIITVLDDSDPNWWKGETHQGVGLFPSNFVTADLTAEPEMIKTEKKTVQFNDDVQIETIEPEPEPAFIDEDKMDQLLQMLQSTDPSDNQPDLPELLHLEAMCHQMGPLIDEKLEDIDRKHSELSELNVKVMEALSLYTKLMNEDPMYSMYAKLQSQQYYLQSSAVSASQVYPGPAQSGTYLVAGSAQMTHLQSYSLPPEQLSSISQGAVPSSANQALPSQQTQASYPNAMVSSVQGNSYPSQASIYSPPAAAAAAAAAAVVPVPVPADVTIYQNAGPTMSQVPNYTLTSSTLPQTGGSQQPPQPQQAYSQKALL
# Molecular target: hepatocyte growth factor-regulated tyrosine kinase substrate (HGS) (mouse (endogenous in 17Cl-1)) (UniProt Q99LI8)
# Assay: affinity purification with mass spectrometry
substance,measurement,value
STAM (from UniProt P70297 1-548),binding,binds

# No constants are given. Whether binding was seen depends on the method and setting. In cells and extracts the contact can be indirect. A yes stands for co-enrichment or nearness to the bait. Other partners may have been found.
